# Among all 31,000 sequences or so, about 1,400 (4.5%) were called active.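 How the source made its calls: active means median seed-adjusted z-score above 1 or below -1; inactive means the rest.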 Some of the results follow.
# Assay: Novel Modifiers of Survival Motor Neuron (SMN) Protein: Gene Identification via Genome-wide siRNA Screen;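 further: luminescence tracks full-length SMN protein made from the SMN2 reporter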
# Details: HEK293T SMN2-luciferase reporter, siRNA knockdown, 72 h; actives lie on both sides
# How it was run: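 HEK293T cells stably expressing an SMN2 splicing/cDNA-luciferase reporter were reverse-transfected with a druggable-genome siRNA library and read by luminescence at 72 hours; hits defined by MAD score above 1.0 or below -1.0.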
row,Sequence,median seed-adjusted z-score
1,ACAGUGUAUUCAAACAGUATT against NGF,inactive: -0.325
2,CAAGGACAACUCAAACUUATT against PRKACA,inactive: -0.137
3,GAGAUUGACAAGACCGUGATT against DUS1L,inactive: 0.0698
4,GGCUAUGACUACAAGGUGATT against CORO2A,inactive: 0
5,GGACUGAUCAUGAACCUCUTT against CPEB3,inactive: 0.086
6,GGAUGUCACUACUGACUGUTT against PPM1J,inactive: -0.901
7,CCAUGAUAGUGACGAGGCATT against DCTD,inactive: 0
8,GGUUUCUAGUGGUAAUAGATT against ARSF,inactive: 0.111
9,GAAGGAUUCUGAUGUCUUATT against MRGPRX2,inactive: 0.0476
10,AGAUCAACCCAGAUAACUATT against INCENP,inactive: -0.339
11,CAGACUUAUUGUAACAAGATT against ENPP3,inactive: 0.66
12,CAUACACCAUGGAGGUAGATT against MYO5B,inactive: -0.212
13,GAAUCGUUACUCUAAAGGATT against CLCN2,inactive: -0.0786
14,CAAAUACACCGGACGUGAUTT against S100A7A,inactive: 0.212
15,GACUCUGAAAUCAACCUUATT against TREM1,inactive: 0
16,GAGUCCGUCUUUUGAAUAATT against RBP4,inactive: 0.0208
17,ACAACGACAUUGACUACUATT against GALNT9,inactive: 0.787
18,AGCGAGUGAUGAUCCCUGUTT against DNAJA3,inactive: -0.0333
19,GAGACAAAGUUCAAAAUGATT against RNASE12,inactive: -0.16
20,GGCUCGAUUUUAUUCUCCATT against KATNA1,inactive: -0.471
21,CUACGUAAAAGAUCGGGUATT against GDI2,inactive: -0.161
22,GAGUGACUGUAGAUCAGGATT against ZSCAN29,inactive: 0.193

row,Sequence,median seed-adjusted z-score
1,CGAUUCCGCUACUACCAUUTT against SLC12A6,inactive: 0.155
2,GAGUAUAAGCAUAACGAAATT against MASTL,inactive: -0.195
3,GCAGAUUGGGAACCUAUUUTT against SLC43A3,inactive: 0.431
4,UGAUGUCUCUGAGAUCCAATT against SLC25A23,inactive: 0.325
5,CCUCAUGUCUCAGACUAUATT against MAP3K2,inactive: 0
6,ACACUCUUGUGGUCAAGAATT against HNRNPC,active: -2.15
7,GCAGAGCGUGCACCAAUGATT against S100A3,inactive: -0.176
8,GCAACGUGCUGCACCAAAATT against AIM2,inactive: 0.0646
9,CCUCCUCAGAUGAUUCAAATT against ZDHHC5,inactive: -0.307
10,AGAAUGAGCCCGAACCAGATT against BRSK2,inactive: -0.12
11,GAGCUACAGAUGACCAGGATT against PRODH,inactive: 0.497
12,CACUGUUUCUUCACCGGCATT against ZDHHC22,inactive: 0.00446
13,CUGUAGAUCUUUGUCAAAATT against DUS4L,inactive: 0.525
14,AGUGGGCCUUUAAUCUCUATT against KCNIP3,inactive: 0.283
15,GGAACUAAGUGACCUCCGATT against ZNFX1,inactive: -0.368
16,UCGUCAAGGUGGACCUAAATT against AURKB,inactive: 0.0901
17,GCGCAAGCUUAAGAACUUUTT against PRPF19,inactive: -0.485
18,CCUCCUUAAGUAUCCAUAUTT against ZNF699,inactive: -0.428
19,GGAUUUAUAUCAAUGUCUUTT against SLC17A3,inactive: -0.296
20,CAGAUCUUGUUGCUAACUATT against EDIL3,inactive: 0
21,GGCUUCAUAUCUAGACUAATT against APOBEC3A,inactive: 0.467
22,GUACUCUAGUAAUGGAAUATT against A4GNT,inactive: 0.213

# In a second layout: entries from further up.
row | Sequence | median seed-adjusted z-score
3 | GAGAUUGACAAGACCGUGATT against DUS1L | inactive: 0.0698
7 | CCAUGAUAGUGACGAGGCATT against DCTD | inactive: 0
8 | GGUUUCUAGUGGUAAUAGATT against ARSF | inactive: 0.111
16 | GAGUCCGUCUUUUGAAUAATT against RBP4 | inactive: 0.0208
6 | ACACUCUUGUGGUCAAGAATT against HNRNPC | active: -2.15
8 | GCAACGUGCUGCACCAAAATT against AIM2 | inactive: 0.0646

# Carrying on:

row,Sequence,median seed-adjusted z-score
1,GGGACAAGAUGUUACAUCATT against UCHL3,inactive: 0.378
2,AGAUGUUUAUCUAACCUGATT against MRGPRX3,inactive: -0.175
3,GAGCAGGAGUUAAGCCCAATT against ELN,inactive: -0.149
4,GCUUUGGUGGAUCACCUCATT against BLOC1S1,inactive: 0.0692
5,GCUUAUUGCUCAAUCCACATT against ZNHIT3,inactive: -0.311
6,GAAGAAUUCAGAUCUAUAATT against PRDX4,inactive: -0.188
7,GGAAGAGUCUCUCAACGGATT against ABCC11,inactive: 0.322
8,GACUUUGCAUUUCCUAGUATT against HSPA1A,inactive: -0.833
9,GUGGGAAAAAUGUAGGAGATT against LTB,inactive: 0.646
10,GGAUCUUCCUACUCGACUATT against THADA,inactive: 0.00995
11,CUCAUUGCCUUUUCACAGATT against UGT1A1,inactive: -0.0283
12,GGACCGUGUUCUUUACGUATT against NDUFAB1,inactive: -0.282
13,GGAUAAUGUCUUAUGUAAUTT against PNPLA3,inactive: -0.0642
14,GGAAGAUGUUGACAUAUUUTT against ACAT2,active: 1.25
15,GAAUCCAAAUAAACCCUGATT against NHLH2,inactive: 0
16,GAGUGAUGCCGGUAAAGAATT against CASP2,inactive: 0.421
17,CAAAUUGCCUCGUCAAAGATT against DNTT,inactive: 0.316
18,CAACAGUUCAAUGAAUCAATT against FOXP2,inactive: 0.222
19,GUGAAUACAUGGAUAAAAATT against SSBP1,inactive: -0.456
20,GCUUCUUAGCUGAGGAAAATT against RDH11,inactive: -0.241
21,CAAUGAUCCCAAGACAAAATT against RNASEH2A,inactive: -0.158
22,UCCUCUAUGUGGAGAAUGATT against G6PD,inactive: 0.593

row,Sequence,median seed-adjusted z-score
1,GACGAGGUAUGUGAAGACATT against RING1,inactive: 0.685
2,GCAACCCUGUCUACAGUAATT against SMAP1,inactive: -0.201
3,CAACGAAAUGUUUACUGCATT against ADAMTS9,inactive: 0.103
4,GAACAUGUAUGGUAGUAAATT against GABBR2,inactive: -0.038
5,AAAAAGACACCUUAACAUATT against SAP30,inactive: -0.618
6,GAAUCACCGAGAAGAUGGATT against RORA,inactive: -0.144
7,AUAUCACUGCAAAGGUUUATT against KLRC4,inactive: -0.218
8,GCUCUUAUGCGACAGUUUATT against PFTK2,active: -1.16
9,CGACAUUCUUGAGUGUGAATT against PLG,inactive: 0.00473
10,CGCUGUUCGUCCACCUGAATT against ADAMTS8,inactive: 0.115
11,CUAUACUUCUCCAACGUGATT against NFASC,inactive: 0.594
12,AGCUGAAGGAGGAUACAGATT against RBM19,inactive: 0.204
13,CUUUUUCGAUGAAUCUCAATT against ESX1,inactive: 0.275
14,GGAUCUGGAAGGUAGAAAATT against CHAF1B,inactive: 0.634
15,CAUGCUUGCUGAUCAGCUATT against RAC3,inactive: 0.477
16,CGACACUCACUGUACUUCATT against ATG4D,inactive: -0.216
17,CUCCCAACGUGGUCAAGCATT against PAX1,inactive: -0.111
18,UCCUGUUCCGCGACCCUUATT against CAPN12,inactive: 0.155
19,CACUGAGAGUAAUCGCUAUTT against NUP160,inactive: -0.261
20,GUCAUGUACUGGAAGCUCATT against WFS1,inactive: 0.696
21,CCACGGAUCUGAGAUUAAATT against ARSJ,inactive: -0.0978
22,GAGGAUUCGCUAUAAGAAATT against PBX2,inactive: 0.253

row,Sequence,median seed-adjusted z-score
1,CCAACGAACAUGUACAACATT against CACNA2D3,inactive: 0.198
2,GGAUAACACUGUACAAGCUTT against PTPN4,inactive: -0.447
3,UUUGCUGUCUUGAACAUAATT against GIPC1,inactive: 0
4,AAACAAAACUUGCACUUUATT against RASD1,inactive: 0.674
5,GCCUGCAGGUGAAAUGGAATT against PLSCR4,inactive: -0.543
6,CAACGAGAAUGGUAUACAATT against SMARCA1,inactive: 0.6
7,AAAUCACUGCUUCAGAAUATT against MS4A5,inactive: 0.226
8,GCAUCACACUCACAUCCCATT against DNASE2,active: -1.23
9,CCAGAAUGAUCAAGCAUUUTT against NEK7,inactive: 0
10,GCACUUGCAGGUUUUAAAUTT against LRTM1,inactive: 0.492
11,GGGUAGAUGACAAGGUGAATT against UCHL1,inactive: -0.421
12,GCAGCCCUGGGCUAAACAATT against HES6,inactive: 0.71
13,GAAAGAUCAUGGGAAGAAATT against RALBP1,inactive: -0.0514
14,GAGACCUAACUGUACGUGATT against TSG101,active: 1.48
15,GAAGAUUGGUUUUCGAUUATT against LIN9,inactive: 0
16,GCAGUUGCACUAUAAUGGATT against PTPN21,inactive: 0
17,GUUCAUCUUGAUUCACAAATT against NOC4L,inactive: -0.315
18,GAGUCUGCUUUAAAGCGCATT against ZNF509,inactive: 0
19,AGGUGAACGAGAACUGGUATT against SORBS3,inactive: 0.106
